According to PubChem BioAssay AID1671190 (National Center for Advancing Translational Sciences (NCATS), 2021):
The campaign covered roughly 580,000 compounds. About 6,100 (1.1%) were called active. This list was built around the results that the source calls inconclusive (neither active nor inactive); the mix of calls is not that of the screen. The call rests on the fitted dose curve; in most records, active means well fitted inhibition curve with a large enough effect; inconclusive means small, poorly fitted or top-dose-only effect, or another doubt; inactive means no such curve, though single readings can be large or run the other way. A potency beside an inconclusive call is a rough fit, not a confirmed value.

Chains of the proteins cited; added tags and fusions are not shown. Lines headed by an entry give the natural chain unless they say otherwise; changes in a name come on top.
UniProt P18054: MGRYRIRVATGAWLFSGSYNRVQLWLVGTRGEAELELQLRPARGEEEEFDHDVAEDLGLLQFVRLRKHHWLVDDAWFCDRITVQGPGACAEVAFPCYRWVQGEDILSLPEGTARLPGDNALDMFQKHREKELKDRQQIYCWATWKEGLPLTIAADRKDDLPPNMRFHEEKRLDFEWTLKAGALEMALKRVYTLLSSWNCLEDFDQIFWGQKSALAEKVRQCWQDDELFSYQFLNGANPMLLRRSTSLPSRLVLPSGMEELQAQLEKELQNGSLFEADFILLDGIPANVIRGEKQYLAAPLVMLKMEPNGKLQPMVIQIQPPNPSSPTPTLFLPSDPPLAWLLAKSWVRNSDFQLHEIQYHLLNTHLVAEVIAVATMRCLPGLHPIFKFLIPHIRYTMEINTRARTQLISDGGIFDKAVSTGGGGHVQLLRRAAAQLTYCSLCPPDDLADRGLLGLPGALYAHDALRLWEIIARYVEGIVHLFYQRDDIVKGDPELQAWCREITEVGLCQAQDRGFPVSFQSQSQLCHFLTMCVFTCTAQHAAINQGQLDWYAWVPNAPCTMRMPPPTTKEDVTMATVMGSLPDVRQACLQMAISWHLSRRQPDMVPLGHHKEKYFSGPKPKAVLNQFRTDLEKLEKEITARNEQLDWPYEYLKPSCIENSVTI

Target: Polyunsaturated fatty acid lipoxygenase ALOX12 (Homo sapiens) (UniProt P18054)
Assay: Primary qHTS assay for inhibitors of human arachidonate 12S-lipoxygenase (ALOX12): Round 2
Details: purified 12hLO, xylenol orange hydroperoxide absorbance; activity change, negative = inhibition: at 108 µM (top of the series) unless noted
Summary of the method: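 Purified human 12hLO (150 nM final) in 25 mM Hepes, 0.01% Triton X-100, pH 7.0 was preincubated 15 min at room temperature with compound. Then 40 uM arachidonic acid was added, 30 min. Hydroperoxide was read by Fe-XO absorbance ratio 573/405 nm.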
On the % scale 0 is the no-effect control and ±100 the full control effect; potency means the concentration at half of the fitted maximal effect.

Row | Compound | Potency | activity change, negative = inhibition
1 | CCCC(=O)Nc1ccc(S(=O)(=O)Nc2cc(OC)ncn2)cc1 | inconclusive: 28.2 µM [inhibitor, single point] | –
2 | COC(=O)c1c(NC(=O)/C=C/c2ccco2)sc2c1CCC2 | inconclusive: 31.6 µM [inhibitor, partial curve] | –
3 | O=C(Cc1cccc2cccnc12)NCC1CC1 | – | inactive: -0.0286%
4 | CCOC(=O)c1cc2c(=O)n3ccccc3nc2n(CCCOC)c1=NC(=O)C(C)(C)C | inconclusive: 28.2 µM [inhibitor, full curve, poor fit] | –
5 | COc1cc(COc2ccc(-c3nnco3)cc2)ccc1OC(F)F | inconclusive: 100 µM [inhibitor, partial curve, poor fit] | –
6 | Cc1ccc(-c2nnn(CC(=O)N(c3ccccc3)C(C(=O)NCC3CCCO3)c3ccc(F)cc3)n2)o1 (centres undefined) | – | inactive: -8.98%
7 | COC(=O)c1ccc(NC(=O)Cn2c([N+](=O)[O-])cnc2C)cc1 | inconclusive: 112 µM [inhibitor, single point] | –
8 | O=C(NCC1CCCO1)c1c(O)c2cccc3c2n(c1=O)CC3 (centres undefined) | inconclusive: 1.58 µM [inhibitor, full curve, poor fit] | –
9 | CCOC(=O)/C=C1\CN(CCC(C)C)S(=O)(=O)c2ccccc21 | – | inactive: 4.9%
10 | Cn1c(SCc2cc(=O)c3cc(Cl)ccc3[nH]2)nnc1-c1ccccc1 | – | inactive: -27%
11 | S=c1[nH]nc(-c2ccc(Br)o2)n1Cc1ccccc1 | active: 1.58 µM | –
12 | C[C@H]1CN([C@@H](C)CO)C(=O)c2cc(-c3cccc(C(=O)N(C)C)c3)cnc2O[C@H]1CN(C)C(=O)Cc1ccccn1 | inconclusive: 79.4 µM [inhibitor, single point] | –
13 | COc1cccc(/C=N/NC(=O)c2cnccn2)c1 | inconclusive: 56.2 µM [inhibitor, partial curve, poor fit] | –
14 | CN(C)C(=O)c1ccc(-c2cc(NCc3ccccc3)ncn2)cc1 | inconclusive: 39.8 µM [inhibitor, partial curve] | –
15 | C/C(=N/NC(=O)c1cc2ccccc2cc1O)c1ccco1 | inconclusive: 44.7 µM [inhibitor, partial curve, poor fit] | –
16 | O=C(O)C1CCN(C(=O)CSc2nnc(-c3ccccc3F)n2C2CCCC2)CC1 | inconclusive: 100 µM [inhibitor, partial curve, poor fit] | –
17 | NC(Cc1ccc(Cl)cc1)c1csc(NC(=O)Nc2ccccc2)n1 (centres undefined) | inconclusive: 44.7 µM [inhibitor, partial curve, poor fit] | –
18 | COc1ccc(-c2cnc(OC(C)(C)C)nc2OC(C)(C)C)cc1OC | – | inactive: -21.9%
19 | Cc1cc(C)nc(SCC(=O)c2ccc([N+](=O)[O-])cc2)n1 | inconclusive: 20 µM [inhibitor, partial curve, poor fit] | –
20 | COc1ccc(C2c3ccc4ccccc4c3Oc3ncn(CCCO)c(=N)c32)cc1 (centres undefined) | inconclusive: 89.1 µM [inhibitor, partial curve, poor fit] | –
21 | CC(=O)N1CCC(C(=O)N2CCCN(c3cc(-c4ccc(Cl)cc4)[nH]n3)CC2)CC1 | – | inactive: 8.92%
22 | CCCCCC1=CCC/C1=N\NC(=O)c1cccnc1 | – | inactive: 4.1%
23 | COCCCNC(=O)c1sc2nc(C)c(C(=O)Nc3ccc(C)cc3C)c(-c3ccccc3Cl)c2c1N | inconclusive: 89.1 µM [inhibitor, partial curve, poor fit] | –

Row | Compound | Potency | activity change, negative = inhibition
24 | CC1(c2ccc3noc(-c4ccccc4)c3c2)OCCO1 | inconclusive: 44.7 µM [inhibitor, partial curve, poor fit] | –
25 | CCOC(=O)C1CCN(C(=O)c2ccccc2)C(CC)C1=O (centres undefined) | – | inactive: -13.4%
26 | CCOC(=O)/C(=N\Nc1cccc(C(F)(F)F)c1)N1CCOCC1 | inconclusive: 10 µM [inhibitor, partial curve, poor fit] | –
27 | O=CN1CCN(C(=O)CCC(=O)O)CC1 | – | inactive: 1.54%
28 | COc1ccc(/C=C2\SC(=O)N(CCC(=O)N3CCCCC3CCO)C2=O)cc1 (centres undefined) | – | inactive: -0.121%
29 | C#CCNC(=O)C1=C[C@@H](c2ccc3c(c2)OCO3)C[C@@H](OCCCCO)O1 | inconclusive: 39.8 µM [inhibitor, partial curve] | –
30 | O=C(CN1C(=O)NC2(CCCc3ccccc32)C1=O)c1ccc(Br)cc1 (centres undefined) | inconclusive: 79.4 µM [inhibitor, partial curve, poor fit] | –
31 | Cc1cccc(NC(=O)CC2CCCN(c3cnn(C)c(=O)c3)C2)c1 (centres undefined) | inconclusive: 25.1 µM [inhibitor, partial curve, poor fit] | –
32 | Cc1cc(Br)ccc1NC(=O)CN(C)C(=O)C1CCN(C(=O)c2ccc(Cl)cc2)CC1 | inconclusive: 100 µM [inhibitor, partial curve, poor fit] | –
33 | Cc1nnc(C)n1/N=C/c1cccn1C | – | inactive: 46.4%
34 | Cc1ccc(C(=O)Nc2c(-c3cccs3)c(=O)c3ccccc3n2C)cc1 | inconclusive: 126 µM [inhibitor, single point] | –
35 | Cc1ccc(Cl)cc1N1CCN(C(=O)c2ccc(CS(=O)c3ccccc3)o2)CC1 (centres undefined) | inconclusive: 70.8 µM [inhibitor, partial curve, poor fit] | –
36 | CC(=O)c1ccc(N2CCN(S(=O)(=O)c3c(C)[nH]c(=O)[nH]c3=O)CC2)cc1 | inconclusive: 3.98 µM [inhibitor, full curve, poor fit] | –
37 | Fc1ccc(-c2nc3ccc(Br)cn3c2Cc2cccc(Cl)c2)cc1 | inconclusive: 89.1 µM [inhibitor, single point] | –
38 | Cc1cc(C)cc(Nc2cc(C(=O)NCCCN(C)C3CCCCC3)c3ccccc3n2)c1 | inconclusive: 126 µM [inhibitor, single point] | –
39 | COCCn1c(C)cc(C(=O)CN2C(=O)NC3(CCCCCCC3)C2=O)c1C | – | inactive: 1.32%
40 | CSc1nc(Nc2ccc(Cl)cc2)c(C#N)c(=O)[nH]1 | active: 6.31 µM | –
41 | O=C(Nc1ccc2c(c1)OCCO2)c1ccc(Br)s1 | inconclusive: 79.4 µM [inhibitor, partial curve, poor fit] | –
42 | COc1c(Cl)cc(Cl)cc1/C=C/C(=O)c1ccc(NC(=O)c2cccs2)cc1 | – | inactive: -3.62%
43 | CC1(C)NC(=O)N(CC(O)CN2C(=O)CCC2=O)C1=O (centres undefined) | – | inconclusive: -31.6% [inhibitor]
44 | Cc1cccc(C)c1NC(=O)c1ccc([N+](=O)[O-])s1 | – | inactive: 1.06%
45 | COc1ccc(OCCCC(=O)OCC(=O)Nc2ncc(Cl)cc2Cl)cc1 | inconclusive: 7.94 µM [inhibitor, full curve, poor fit] | –
46 | O=C(CC1C(=O)NCCN1C(=O)Nc1ccccc1)Nc1cc(Cl)cc(Cl)c1 (centres undefined) | inconclusive: 79.4 µM [inhibitor, partial curve, poor fit] | –

Row | Compound | Potency | activity change, negative = inhibition
47 | Cc1ccccc1Cn1nc(C)c(NC(=O)c2noc3c2CCCC3)c1C | – | inactive: -7.24%
48 | CCOc1ccc(OCCCC(=O)Nc2cc(S(=O)(=O)N3CCOCC3)ccc2N2CCOCC2)cc1 | inconclusive: 141 µM [inhibitor, partial curve, poor fit] | –
49 | CCn1c(CNC(=O)c2ccc(OC)c(OC)c2)nnc1SCC(=O)c1ccc(OC)cc1 | inconclusive: 100 µM [inhibitor, single point] | –
50 | O=C(CCl)Nc1ccc2c(c1)CCC2 | inconclusive: 12.6 µM [inhibitor, full curve, poor fit] | –
51 | CCOCCCNCc1ccc(Cl)cc1Cl | inconclusive: 0.794 µM [inhibitor, full curve] | –
52 | COc1ccccc1C(=O)COC(=O)c1nc(Cl)ccc1Cl | inconclusive: 31.6 µM [inhibitor, partial curve, poor fit] | –
53 | CN(Cc1ccc2c(c1)CCCN2C)C(=O)[C@H]1O[C@@H](n2cnc3c(N)ncnc32)[C@H](O)[C@@H]1O | inconclusive: 35.5 µM [inhibitor, single point] | –
54 | O=C(Nc1ccc2c(c1)OCO2)C1CC1 | – | inactive: -26.8%
55 | COc1cccc(C(=O)NCCS(=O)(=O)N(C)C2CCCCC2)c1 | – | inactive: -23.9%
56 | CC(C)NS(=O)(=O)c1ccc(C(=O)NCC(=O)O)cc1 | inconclusive: 35.5 µM [inhibitor, partial curve, poor fit] | –
57 | CCCn1nc(C(=O)N2CCN(c3ncccn3)CC2)c2ccccc2c1=O | inconclusive: 100 µM [inhibitor, single point] | –
58 | Oc1ccc(N2CCN(C(c3ccccn3)c3nnnn3C3CCCC3)CC2)cc1 (centres undefined) | inconclusive: 20 µM [inhibitor, full curve, poor fit] | –
59 | CO[C@H]1C(=O)N(C(C)C)[C@H]1C1CCN(CC2CCCCC2)CC1 | – | inactive: 13.2%
60 | NS(=O)(=O)c1ccc(F)c(C(=O)NC2CCc3[nH]ncc3C2)c1 (centres undefined) | – | inactive: -8.65%
61 | COc1ccccc1C(=O)COC(=O)Cc1coc2cc3c(cc12)CCC3 | inconclusive: 17.8 µM [inhibitor, full curve] | –
62 | O=C(c1cccc(Cl)c1)N1CCN(C2CCCCC2)CC1 | inconclusive: 2.82 µM [inhibitor, full curve, poor fit] | –
63 | O=C(Cc1ccc(N2CCCC2=O)cc1)N1CCC(C(=O)N2CCCCCC2)CC1 | – | inactive: -10.4%
64 | O=C1c2cccc3cccc(c23)C(=O)N1CCCCCc1n[nH]c(=S)o1 | inconclusive: 50.1 µM [inhibitor, partial curve, poor fit] | –
65 | CC(C)n1ncc2cc(NC(=O)c3ccc(Cl)c(S(=O)(=O)N4CCCCC4)c3)cnc21 | – | inactive: -10.4%
66 | CC(C)CC(=O)N1CCN(Cc2ccc(Cl)cc2)CC1 | inconclusive: 1.26 µM [inhibitor, full curve, poor fit] | –
67 | CSc1nnc2c(n1)OC=Nc1ccccc1-2 | – | inactive: 0%
68 | Oc1cc2ccccc2cc1-c1n[nH]c(=S)n1Cc1ccco1 | active: 39.8 µM | –
69 | Cc1[nH]n(-c2cccc3ccccc23)c(=O)c1/C=N/NC(=O)c1cccc([N+](=O)[O-])c1 | active: 44.7 µM | –

Copied from above: entries 60–62
Row | Compound | Potency | activity change, negative = inhibition
60 | NS(=O)(=O)c1ccc(F)c(C(=O)NC2CCc3[nH]ncc3C2)c1 (centres undefined) | – | inactive: -8.65%
61 | COc1ccccc1C(=O)COC(=O)Cc1coc2cc3c(cc12)CCC3 | inconclusive: 17.8 µM [inhibitor, full curve] | –
62 | O=C(c1cccc(Cl)c1)N1CCN(C2CCCCC2)CC1 | inconclusive: 2.82 µM [inhibitor, full curve, poor fit] | –
